Results as given in paper PMC11304329.
These are yes or no findings as the source states them, for the method shown. In cells and extracts the contact can be indirect. For part of these data: Binding can be weak; no strength is given.

Protein sequences, listed by entry. Tags and fused reporters are not part of them. Lines headed by an entry give the natural chain unless they say otherwise; changes in a name come on top.
UniProt Q7K1U9: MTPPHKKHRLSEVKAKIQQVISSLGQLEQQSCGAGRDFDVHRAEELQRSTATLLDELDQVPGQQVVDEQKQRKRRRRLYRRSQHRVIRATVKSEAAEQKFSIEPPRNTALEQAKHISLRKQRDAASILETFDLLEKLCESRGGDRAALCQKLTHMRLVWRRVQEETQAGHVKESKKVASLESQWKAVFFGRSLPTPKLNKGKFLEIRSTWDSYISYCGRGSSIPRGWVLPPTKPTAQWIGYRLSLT
UniProt Q9VWH9: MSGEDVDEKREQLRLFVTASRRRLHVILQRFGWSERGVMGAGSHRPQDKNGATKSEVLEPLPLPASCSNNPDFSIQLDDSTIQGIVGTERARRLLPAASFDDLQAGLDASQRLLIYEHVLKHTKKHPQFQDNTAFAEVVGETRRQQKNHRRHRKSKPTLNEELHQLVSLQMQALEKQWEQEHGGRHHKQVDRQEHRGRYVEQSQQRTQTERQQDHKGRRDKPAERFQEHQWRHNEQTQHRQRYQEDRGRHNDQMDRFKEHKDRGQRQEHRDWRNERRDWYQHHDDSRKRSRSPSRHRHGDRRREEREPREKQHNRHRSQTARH
UniProt A8DZ10: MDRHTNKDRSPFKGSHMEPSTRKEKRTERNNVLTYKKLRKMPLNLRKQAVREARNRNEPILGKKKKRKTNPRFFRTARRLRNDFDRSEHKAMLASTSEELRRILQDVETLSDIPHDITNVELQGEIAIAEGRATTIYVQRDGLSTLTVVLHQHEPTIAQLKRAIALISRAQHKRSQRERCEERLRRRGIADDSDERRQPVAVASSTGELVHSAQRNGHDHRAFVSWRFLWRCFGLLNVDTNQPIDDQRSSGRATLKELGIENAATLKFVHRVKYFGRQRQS

Experiments:
Dm59K (Drosophila) = Dm59K (Drosophila) (UniProt Q7K1U9); test: co-IP; two separately expressed FLAG- and V5-tagged proteins in S2 cells; FLAG magnetic beads or V5 agarose beads; IP buffer 20 mM Tris-HCl pH 8.0, 150 mM NaCl, 0.5% NP40, 1% Triton X-100; also with RNase A and/or DNase I on the washed beads; western blot
Dm48K (Drosophila) = Dm48K (Drosophila) (UniProt Q9VWH9); test: as above

Row | binding (Dm59K (Drosophila)) | binding (Dm48K (Drosophila)) | Substance
1 | binds weakly | no binding | Dm25K (from UniProt A8DZ10)
2 | binds |  | Dm48K (from UniProt Q9VWH9)
